Results of single-concentration screens

Mtb cholesterol medium: 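Whole-cell growth test on Mycobacterium tuberculosis, read after 4 days in a medium based on cholesterol and the lipid DPPC; the read-out is not stated. Compounds at 50 µM. The record gives no direction; compounds that gave an IC50 in retests scored well above the rest, so higher reads as more growth inhibition. Size under these conditions: about 69,000 compounds, about 370 of them at 50% or above in at least one test.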
Mtb glucose medium: 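Growth of Mycobacterium tuberculosis over 3 days (7H9 medium with glucose and tyloxapol); the read-out is not stated. Compounds at 50 µM. The record gives no direction; compounds that gave an IC50 in retests scored well above the rest, so higher reads as more growth inhibition. Of about 69,000 compounds tested this way, about 760 (1.1%) reached 50% or more in at least one test.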

Values are the deposited “Percent Effect”, in %.
The record does not define 0% and 100%; most values in the screen are far below 50% and negative numbers occur (in some assays of this library far below -100).
The compounds are a random part of those screened.
Two or more numbers in one place are separate tests of the same structure; such repeats can differ widely.

SMILES,Mtb cholesterol medium,Mtb glucose medium
Cn1ccc(C(=O)N2CCCC(n3cncn3)C2)cc1=O (centres unmarked),16.06,16.28
CN1CCC(Oc2ccc(NC(=O)c3ccccc3Br)cc2)CC1,-10.68,18.18
Fc1ccc(-c2cnc(CNC3CCc4ncnn4C3)o2)cc1 (centres unmarked),-24.13,-14.4
COCC(=O)N1CCc2nc(C(=O)N(C)C)sc2CC1,-6.9,-7.315 & -32.51
CC(C)[C@H](N)C(=O)N1CCSc2ccccc2C1.Cl,-5.849,-3.13
O=c1cc(N2CCCCC2)cnn1Cc1noc(C2CCCO2)n1 (centres unmarked),-1.97,2.594 & -3.07
CC(=O)N1CC2(CCN(C(=O)N(C)C)CC2)c2cc(C)ccc21,-22.25,-26.24
[H][C@]12CN(C(=O)CCc3ccsc3)CC[C@@]1(O)CCN(C(=O)COC)C2,-7.091,6.891
CCc1nnc2n1CCN(Cc1csc(NC(C)=O)n1)C2,-4.13,-1.449
CCNc1nc(-c2cccnc2)c(-c2ccnc(N3CCOCC3)n2)s1,-11.24,23.63
Cc1ccc(N2CCC(C(O)Cc3ccccc3)CC2)nn1 (centres unmarked),-12.65,15.31
O=C(O)C(F)(F)F.c1csc(CN2CCc3ncnc(C4CCOC4)c3CC2)c1 (centres unmarked),4.266,16.69 & -2.079
C/C=C(/C)C(=O)NS(=O)(=O)c1ccc(Cl)cn1,-4.826,2.708 & -2.342
O=C(O)c1ccc(C2CCCN(C(=O)c3ccc[nH]3)C2)cc1 (centres unmarked),0.6359,10.99
O=C(NCCN1CCOCC1)N(Cc1ccoc1)C1CCCCC1,-8.894,-5.166 & 0.7909
O=C(CCc1cc(O)no1)N1CCCC(COc2ccccc2F)C1 (centres unmarked),-6.255,3.412 & 12.08
Cc1cc(CNC(=O)COc2ccccc2F)c(C)o1,4.199,11.35 & 18.32
CN(C)CC(=O)N1Cc2cc(N(C)C)ccc2C1c1cnco1 (centres unmarked),-0.9451,-16.1 & -3.538
O=C(O)C(c1ccc2c(c1)OCO2)N1CCC(C(=O)N2CCCC2)CC1 (centres unmarked),-20.21,2.779
Cc1cnc(CC2COCCN(Cc3nccn3C)C2)cn1 (centres unmarked),-5.823,-1.147
Cc1cnn(C2CN(c3ncnc4[nH]ccc34)C2)c1,6.278,-14.54
O=C(c1ccccn1)N1CCC2(CC1)CN(c1cncnc1)C(=O)CO2,2.598 & -5.917,-37.27
COc1cccc(CN(C)C(=O)CCC(=O)c2ccccc2)c1OC,14.62 & 3.597,6.882
Cc1nc(C2CCN(C(=O)c3ccc(Cl)s3)CC2)cc(=O)[nH]1,8.767,9.273
O=C1NC2(CCN(CC(=O)N3CCOCC3)CC2)Nc2ccccc21,2.647 & -6.401,-20.6
CCCN(CCC)CCNc1c(-c2ccccc2)c(=O)c1=O,6.938,13.6
COc1ccc2[nH]c(C(=O)NCC3(N)CCCC3)cc2c1,-3.292,8.47
c1ncn(Cc2nnc(C3CCN(CC4CC4)CC3)n2C2CC2)n1,4.054,9.496
Cc1nc(C(C)C)ncc1C(=O)N1CCCC(N2CCCC2)C1 (centres unmarked),-24.57,-14.17
Cc1ccc(C(NC(=O)CC2CCN(C(C)C)CC2)C(=O)O)cc1 (centres unmarked),31.62,-2.886
Cc1ccccc1-n1cc(CNc2ncnc3c2CCNCC3)cn1,7.937,7.331
COc1cccc2c(=O)n(Cc3nc(C)cc(O)n3)cnc12,-21.72,-44.89
NC(=O)c1c(-c2ccc(Cl)cc2Cl)csc1NC(=O)CCC(=O)O,2.154,-44.14
COc1cc(NC(=O)NC2CC2)ccc1N1CCOC1=O,14.92,15.83
NC(=O)Nc1cc(Br)cnc1OCC(F)(F)F,10.01,30.54
Cc1cccc(CN2CCn3cc(CNC(=O)CC4CC4)nc3C2)n1,-8.714,7.957
O=C(O)C(F)(F)F.[H][C@@]12OCCN(C(=O)c3ccc(C)o3)[C@@]1([H])CC[C@H]2OCc1ccccn1,17.03,0.09925 & 3.404
Cc1ccc(CC(=O)Nc2cc(C(C)C)n[nH]2)cn1,-8.138,16.41
CCOc1cc(Cl)ccc1CNC(=O)c1ccc(=O)n(C)c1,8.493,17.35
O=C(C1CCOC1)N1CCN(Cc2ccncc2)c2ncccc2C1 (centres unmarked),-4.339,20.96
CN(C)c1cncc(-c2ccnc3c2ccn3C)n1,-7.683,3.112
CCN(CC)C(=O)c1ccc(NC(=O)CNc2ccc(F)cc2Cl)cc1,-20.87,-1.575 & -7.515
Cc1cnn(CC2CCCCN2Cc2nnc(-c3ccco3)o2)c1 (centres unmarked),0.2524,22.18
Cc1ccc(C(=O)N2CCC3(CCCN(c4ncc(F)cn4)C3)C2)cn1.O=C(O)C(F)(F)F (centres unmarked),-0.7737,2.53
CN1CCN(CC(CC(=O)Nc2ccc(Cl)cc2)C(=O)O)CC1 (centres unmarked),-17.63,24 & 5.636
C1Cc2nc(CCNc3nc(C4CC4)nc4c3CCNCC4)sc2C1,40.16,30.03 & 46.77
N#Cc1ccc(N2CCC3(CCC(=O)N3Cc3ccncc3)CC2)nc1.O=C(O)C(F)(F)F.O=C(O)C(F)(F)F,-9.696,-1.654
CC(=O)N1CCCCC1c1nc(N)ncc1-c1ccccc1 (centres unmarked),-20.15,4.159
Cc1cc(C)cc(N(CCC#N)C(=O)CN2CCCC2c2cccs2)c1 (centres unmarked),-31.11,4.431
Cc1nc(C2CCCN2Cc2cc(=O)n(C)c(=O)n2C)no1 (centres unmarked),-0.03065,-1.632
Cc1ccc(Cl)c2ccc(NC(CO)CO)nc12,15.55,23.76
c1ccc(-c2nc(CN3CCCCC3Cn3cncn3)co2)cc1 (centres unmarked),1.297,4.739
O=C(O)C(F)(F)F.O=C(O)C(F)(F)F.[H][C@@]12COC[C@]1(COCc1ccncc1)CN(Cc1cccc(F)c1)C2,-5.27,22.5
Cc1cc(CNC(=O)N2CCCN(Cc3ccccc3)CC2)no1,-23.66,-17.29
OC(CNC1CCOCC1)c1cccc(OCc2ccccc2)c1 (centres unmarked),11.22,4.498
CCn1cc2c(n1)C(COC)CN(C(=O)COc1ccccc1C)C2 (centres unmarked),-25.92,-8.938
Cc1cc2n(n1)[C@@H](C(F)(F)F)C[C@@H](C1CCN(C(=O)C(C)C)CC1)N2,-2.479,3.536
CC(C)c1nc2c(n1C)CCN(CC(=O)Nc1nccs1)C2,-13.3,5.665
Cl.[H][C@@]12CCN(C3CCCCC3)C[C@]1([H])[C@@H](c1ccsc1)CN2C(=O)C(C)(C)C,4.327,0.9018
Cc1cnn(CC2CN(CC(=O)Nc3ccncc3)CCO2)c1 (centres unmarked),-6.715,13.35
CN(C)C(=O)CN(C)C(=O)c1cccn1CCc1ccccc1,9.463,0.8128 & -2.224

Some entries from above, unchanged:

* CN1CCN(CC(CC(=O)Nc2ccc(Cl)cc2)C(=O)O)CC1 (centres unmarked) | Mtb cholesterol medium: -17.63%; Mtb glucose medium: 24% & 5.636%
* C/C=C(/C)C(=O)NS(=O)(=O)c1ccc(Cl)cn1 | Mtb cholesterol medium: -4.826%; Mtb glucose medium: 2.708% & -2.342%
* Fc1ccc(-c2cnc(CNC3CCc4ncnn4C3)o2)cc1 (centres unmarked) | Mtb cholesterol medium: -24.13%; Mtb glucose medium: -14.4%

The values are deposited in ChEMBL (CHEMBL3988442, “University of Dundee, Small-Polar-MMV Screening Library” (2021)).